# Laboratory results: the supplement of paper PMC3334620
# Whole data set: some 33,000 sequences, median “E-score (-0.5 to 0.5)” near -0.0034, cut for the highest 2% near 0.25. Some of the results follow.
# Target: T1, Yap3 (UniProt P38749)
# T1 sequence: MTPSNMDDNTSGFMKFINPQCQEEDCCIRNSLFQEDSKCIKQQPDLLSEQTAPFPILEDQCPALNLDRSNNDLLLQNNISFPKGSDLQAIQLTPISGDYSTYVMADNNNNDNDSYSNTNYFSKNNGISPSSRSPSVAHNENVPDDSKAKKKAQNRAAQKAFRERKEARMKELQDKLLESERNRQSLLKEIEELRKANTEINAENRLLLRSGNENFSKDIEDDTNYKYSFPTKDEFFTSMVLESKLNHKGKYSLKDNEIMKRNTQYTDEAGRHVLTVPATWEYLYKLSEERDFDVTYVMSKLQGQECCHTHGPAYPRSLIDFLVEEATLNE
# Experiment: PBM E-score (8-mer binding enrichment) (E-score (-0.5 to 0.5)); higher = stronger / more preferred TF binding
# Conditions: protein concentration: 100 nM; construct: GST-full length
# Outline: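 The E-score, a modified Wilcoxon-Mann-Whitney statistic, was computed by the Universal PBM Analysis Suite for every ungapped eight-base word pooled with its reverse complement. Scans behind it were normalised with masliner after bound GST-tagged yeast transcription factors were detected with fluorescent anti-GST. The proteins, at about 100-200 nM, had been applied to universal all-10-mer Agilent arrays made double-stranded by primer extension.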
row,Sequence,PBM E-score
1,ACCTTTGG,-0.232
2,GAGTTAGC,0.0825
3,AGGGGACT,-0.237
4,CGATAGAC,-0.0118
5,ACTAGTGC,-0.00191
6,ACACTAAC,0.116
7,CACACCCA,0.137
8,ATTTTTGG,0.118
9,CCGACGTA,-0.1
10,CCTCCTAC,-0.225
11,GTACTAAA,0.21
12,GTCTCCAA,0.0817
13,CCACTCAG,-0.157
14,CTTACAGC,-0.0539
15,CAACGGAG,-0.0876
16,CCCCGGAC,-0.277
17,CACCCGGA,-0.00575
18,GGAGGGAC,-0.284
19,CAGGACTG,-0.282
20,ATCGCCCC,-0.215
21,CTTACTAC,0.211
22,AGTGCGTC,-0.0649
23,CGCGTACA,-0.00198
24,GACCATAA,0.0774
25,CGTAGACC,-0.271

row,Sequence,PBM E-score
1,TAAAGGAA,0.034
2,AACCAAGC,0.0637
3,ATGCGTGA,0.138
4,ATGCTGTC,-0.0733
5,GATTGTCC,-0.00874
6,GCTCACGA,-0.099
7,CCGCCGGA,-0.162
8,CTATGGTA,-0.0251
9,ACAATATC,0.153
10,CGGTCGGA,-0.143
11,ACAGTTAC,0.115
12,AACCACGC,-0.142
13,CTATTGAC,0.0296
14,CGTAAGAA,-0.0102
15,AAGGTAGC,-0.212
16,CCTGCACG,-0.093
17,ATGCTACA,-0.121
18,GATAATCC,0.0355
19,AGTATAGC,-0.0055
20,AGAGCTGC,-0.19
21,ATAGGGCG,-0.184
22,AGCGTTCG,-0.0836
23,ACAGGTGG,-0.149
24,CGCCCACA,0.181
25,ATAAGCCA,0.0193

row,Sequence,PBM E-score
1,ACCATATG,0.122
2,TAGCCCCA,0.00033
3,AGGTCCAG,-0.0912
4,CAGAAGAC,0.0205
5,CGCGTGCC,0.0402
6,AAACTCGA,0.122
7,CTGCTCGA,-0.173
8,GTGAGGCA,0.0355
9,CTAAGGAA,0.0232
10,CCCCCTCC,-0.442
11,ACACATGG,0.0968
12,TCCCCTCA,0.077
13,GGAGAAGA,-0.148
14,AAGTCCCT,-0.278
15,CGCCGTAA,0.168
16,GCGTTTAC,-0.0973
17,CTTTGCTA,0.0895
18,GCTTAAAC,-0.171
19,CCGCATAG,0.036
20,CTCGCCAA,0.00948
21,ATTTGGTG,0.0776
22,ATTCCGTA,0.155
23,ATCACCGG,-0.0609
24,ACCATGTA,0.105
25,GTAATGAA,0.246

row,Sequence,PBM E-score
1,AAACCATT,0.0991
2,CATTACTC,0.221
3,AGGAGCAG,-0.222
4,ATGTGCCC,0.0279
5,CCTGAGTC,-0.104
6,GAGAACGC,-0.146
7,CTGAATCC,-0.0348
8,GGGCGGCA,0.0126
9,CGGTTTGC,-0.0876
10,AAAGATTG,0.0264
11,ACTTAGGG,-0.112
12,GTCATTTA,0.0761
13,CATGGTGC,-0.124
14,AGGAATCG,-0.00151
15,CCGAGCGG,-0.228
16,AGCCTCAG,-0.139
17,AAGATCCC,-0.0723
18,AGGCGATC,-0.164
19,ACCGCGAT,0.132
20,CCACATGC,0.112
21,GAGTTCAA,0.034
22,ATTACACA,0.255
23,ATTGGTGA,0.067
24,CGTGGTGC,-0.282
25,GGATGAGA,-0.0553

row,Sequence,PBM E-score
1,GCGGCCGA,-0.0777
2,CATCGTCC,-0.0241
3,CAGGAGCA,-0.018
4,ACACAGCA,0.0489
5,AGCGACTG,-0.0873
6,TAAATAGA,-0.0374
7,AAGACTGC,-0.0146
8,AGGGTTTG,0.0451
9,CACCGCGC,-0.0275
10,AAGTTTAG,0.0681
11,ATTCTGAA,0.105
12,CGGTTTGA,-0.0694
13,ATCACACG,0.0691
14,ATCACGAC,0.0721
15,CTGATCAG,0.116
16,AACAATAG,0.0572
17,GCACTTGA,0.0122
18,CGTATCAA,0.0507
19,AGATTCTC,-0.111
20,AATGCAGG,0.0911
21,ACATAAGA,0.185
22,ATTGTCGA,0.084
23,CACATGTC,-0.0671
24,ATGCGCTC,0.0474
25,ACACCTTA,0.0773

# In a second layout: results already given
row	Sequence	PBM E-score
9	CGGTTTGC	-0.0876
10	AAAGATTG	0.0264
11	ACTTAGGG	-0.112
12	GTCATTTA	0.0761
13	CATGGTGC	-0.124
14	AGGAATCG	-0.00151
15	CCGAGCGG	-0.228
16	AGCCTCAG	-0.139
17	AAGATCCC	-0.0723
18	AGGCGATC	-0.164
19	ACCGCGAT	0.132
20	CCACATGC	0.112
21	GAGTTCAA	0.034
22	ATTACACA	0.255
23	ATTGGTGA	0.067
24	CGTGGTGC	-0.282
25	GGATGAGA	-0.0553
1	GCGGCCGA	-0.0777
2	CATCGTCC	-0.0241
3	CAGGAGCA	-0.018
4	ACACAGCA	0.0489
5	AGCGACTG	-0.0873
6	TAAATAGA	-0.0374
7	AAGACTGC	-0.0146
8	AGGGTTTG	0.0451
9	CACCGCGC	-0.0275
10	AAGTTTAG	0.0681
11	ATTCTGAA	0.105
12	CGGTTTGA	-0.0694
13	ATCACACG	0.0691
14	ATCACGAC	0.0721
15	CTGATCAG	0.116
16	AACAATAG	0.0572
17	GCACTTGA	0.0122
18	CGTATCAA	0.0507
19	AGATTCTC	-0.111
20	AATGCAGG	0.0911
21	ACATAAGA	0.185
22	ATTGTCGA	0.084
23	CACATGTC	-0.0671

# Going on with the list:

row,Sequence,PBM E-score
1,TGATTCCA,-0.0833
2,AGATGCAA,-0.0295
3,AACAGCAG,0.0453
4,AACAGACA,0.168
5,GACAGACC,-0.00743
6,CAATTCCG,0.0319
7,TACTGCCA,0.00049
8,CCCGAAGC,-0.119
9,GACCCAGA,-0.141
10,CACTTATG,0.144
11,GATCCTGC,-0.0874
12,AGAGTCCT,-0.146
13,ACCAGAGT,-0.152
14,GCGCCAAC,0.0226
15,ATTAAAAC,0.236
16,CGCGGGAG,-0.242
17,TCTTCTCA,0.0358
18,GTGGCACA,-0.127
19,AGGTTGGC,-0.133
20,ACTACGAT,0.0434
21,AGTGCGCA,0.0979
22,CAGGAGCC,-0.24
23,ATGCGCCG,0.00281
24,TAGCCCGA,0.0136
25,CCGATGAA,0.00817

row,Sequence,PBM E-score
1,CTTTTTTC,0.141
2,GCCGGCGC,-0.0852
3,CTGGTTCC,0.0129
4,AGTGTACC,-0.0543
5,ACCTGCTA,0.00311
6,GCCTGGAC,-0.205
7,AAGGTTTC,0.0624
8,ACTTATCC,0.165
9,AGTTGAGG,-0.119
10,AGACTAAG,-0.0969
11,ATTTCACG,0.0464
12,AGAGAAGG,-0.229
13,ATTGAATC,0.0178
14,CGGAACCC,-0.0816
15,GAGCTTGA,-0.129
16,AGACAAGG,-0.26
17,ATGGCAGG,-0.0286
18,GTCCGCAA,0.0604
19,GGAGTCAC,-0.255
20,GCCTTTCA,-0.0463
21,CGCAGCTC,-0.0466
22,ATGGGCGA,-0.144
